No constants are given. Whether binding was seen depends on the method and setting. In cells and extracts the contact can be indirect. A result given as binding can be weak or reduced; the word gives no strength.
Target: OsELF3-1 (split-luciferase fusion) (rice (O. sativa subsp. japonica, Zhonghua 11)) (UniProt Q9SNQ6)
Assay: split reporter

Amino acid sequences for entries named in this document (tags omitted). A change or cut given only in a name is not applied to a line headed by its entry.
UniProt Q9SNQ6: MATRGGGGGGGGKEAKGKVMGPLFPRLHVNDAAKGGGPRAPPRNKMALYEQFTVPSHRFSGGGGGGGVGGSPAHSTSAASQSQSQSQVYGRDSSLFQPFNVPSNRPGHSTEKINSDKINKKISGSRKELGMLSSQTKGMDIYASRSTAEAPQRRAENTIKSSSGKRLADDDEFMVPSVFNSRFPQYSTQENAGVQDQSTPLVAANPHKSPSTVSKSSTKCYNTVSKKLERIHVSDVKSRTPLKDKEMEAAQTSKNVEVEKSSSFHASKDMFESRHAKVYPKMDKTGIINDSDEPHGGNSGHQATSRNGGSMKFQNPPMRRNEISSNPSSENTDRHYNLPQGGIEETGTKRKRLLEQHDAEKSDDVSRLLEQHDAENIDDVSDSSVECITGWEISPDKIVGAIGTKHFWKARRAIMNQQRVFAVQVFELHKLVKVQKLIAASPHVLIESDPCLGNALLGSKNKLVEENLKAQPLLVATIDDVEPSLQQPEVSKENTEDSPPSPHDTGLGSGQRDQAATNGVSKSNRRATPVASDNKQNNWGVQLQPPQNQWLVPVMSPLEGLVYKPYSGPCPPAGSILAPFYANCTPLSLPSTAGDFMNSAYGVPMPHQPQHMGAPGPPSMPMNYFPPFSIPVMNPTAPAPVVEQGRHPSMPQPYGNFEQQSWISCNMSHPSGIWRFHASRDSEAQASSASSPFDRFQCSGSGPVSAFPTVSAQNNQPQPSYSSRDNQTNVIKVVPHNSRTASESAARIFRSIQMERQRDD
UniProt Q657D6: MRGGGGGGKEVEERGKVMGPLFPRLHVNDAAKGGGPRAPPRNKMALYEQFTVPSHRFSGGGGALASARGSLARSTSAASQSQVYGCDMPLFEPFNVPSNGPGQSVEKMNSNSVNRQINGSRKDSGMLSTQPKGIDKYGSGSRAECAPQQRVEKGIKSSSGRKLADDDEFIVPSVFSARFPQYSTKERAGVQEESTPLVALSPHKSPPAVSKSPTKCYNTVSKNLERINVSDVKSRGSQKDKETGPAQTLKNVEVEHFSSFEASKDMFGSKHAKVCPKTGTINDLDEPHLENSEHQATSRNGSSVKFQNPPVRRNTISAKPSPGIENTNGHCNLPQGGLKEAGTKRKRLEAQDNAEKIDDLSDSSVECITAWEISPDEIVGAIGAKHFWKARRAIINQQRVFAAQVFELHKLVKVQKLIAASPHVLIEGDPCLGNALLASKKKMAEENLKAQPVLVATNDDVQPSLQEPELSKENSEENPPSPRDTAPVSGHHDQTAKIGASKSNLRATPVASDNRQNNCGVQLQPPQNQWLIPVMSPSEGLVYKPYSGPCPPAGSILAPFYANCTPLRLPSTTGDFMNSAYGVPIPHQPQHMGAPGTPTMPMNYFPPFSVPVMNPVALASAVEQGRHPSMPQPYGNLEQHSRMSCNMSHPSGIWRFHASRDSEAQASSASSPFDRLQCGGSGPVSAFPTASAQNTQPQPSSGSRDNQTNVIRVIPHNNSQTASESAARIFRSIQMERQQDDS

In the case of “OsELF3-2 (split-luciferase fusion) (from UniProt Q657D6)”, the binding was “binds”.

Source: article doi:10.1101/2024.11.13.623495
